{"source": "PubChem BioAssay AID1508588 – Peter MacCallum Cancer Centre – 2020", "assay": "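Knock-downs boosting vemurafenib effects on melanoma cell growth or lactate release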 (primary screen)", "cell system": "human WM266.4 melanoma cells (BRAF V600 mutant)", "reagents": "siRNA pool against human genes, 40 nM", "time to read-out": "96 h from transfection to read-out", "challenge": "vemurafenib 300 nM (about IC25), added 48 h after transfection, for 48 h; comparison arm got DMSO vehicle only", "measured": "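Cell gain (DAPI nuclei at end minus before drug, mean of two replicates) and medium lactate by absorbance per cell, both as ratio to non-targeting siRNA, also grouped into fold-change classes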", "reading the numbers": "cell gain with vemurafenib: higher = more cell gain than with non-targeting siRNA; lactate per cell with vemurafenib: higher = more lactate made per cell", "rule for the call": "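Enhancement is called by pairing each knock-down's vehicle-arm and drug-arm fold-change classes for viability or glycolysis; which class combinations qualify is not given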", "meaning of the calls": "active = enhances vemurafenib effect; inactive = no enhancement seen", "note": "This is an unselected part of about 18,000 reagents. In the full data, 790 (4.4%) are marked active. 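Calls rest on a combination of fold-change classes in drug and vehicle arms, not all shown here.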"}
{"Target gene": "ZNF480 (zinc finger protein 480)", "cell gain with vemurafenib": 1.01, "lactate per cell with vemurafenib": 0.39, "activity call": "inactive"}
{"Target gene": "TUBA1A (tubulin alpha 1a)", "cell gain with vemurafenib": -0.09, "lactate per cell with vemurafenib": 3.1, "activity call": "inactive"}
{"Target gene": "AZU1 (azurocidin 1)", "cell gain with vemurafenib": 0.34, "lactate per cell with vemurafenib": 0.53, "activity call": "active"}
{"Target gene": "MTBP (MDM2 binding protein)", "cell gain with vemurafenib": 0.19, "lactate per cell with vemurafenib": 1.69, "activity call": "inactive"}
{"Target gene": "CSF2 (colony stimulating factor 2)", "cell gain with vemurafenib": 0.84, "lactate per cell with vemurafenib": 0.64, "activity call": "inactive"}
{"Target gene": "ADRB2 (adrenoceptor beta 2)", "cell gain with vemurafenib": 0.46, "lactate per cell with vemurafenib": 2.59, "activity call": "inactive"}
{"Target gene": "LRMDA (leucine rich melanocyte differentiation associated)", "cell gain with vemurafenib": 0.28, "lactate per cell with vemurafenib": 0.44, "activity call": "active"}
{"Target gene": "CHAT (choline O-acetyltransferase)", "cell gain with vemurafenib": 0.72, "lactate per cell with vemurafenib": 0.5, "activity call": "inactive"}
{"Target gene": "C2CD2L (C2CD2 like)", "cell gain with vemurafenib": 0.63, "lactate per cell with vemurafenib": 1.52, "activity call": "inactive"}
{"Target gene": "CYP1A2 (cytochrome P450 family 1 subfamily A member 2)", "cell gain with vemurafenib": 0.96, "lactate per cell with vemurafenib": 1.21, "activity call": "inactive"}
{"Target gene": "SUV39H2 (SUV39H2 histone lysine methyltransferase)", "cell gain with vemurafenib": 0.11, "lactate per cell with vemurafenib": 1.61, "activity call": "inactive"}
{"Target gene": "NAALADL1 (N-acetylated alpha-linked acidic dipeptidase like 1)", "cell gain with vemurafenib": 0.52, "lactate per cell with vemurafenib": 0.86, "activity call": "inactive"}
{"Target gene": "COA8 (cytochrome c oxidase assembly factor 8)", "cell gain with vemurafenib": 0.61, "lactate per cell with vemurafenib": 1.11, "activity call": "inactive"}
{"Target gene": "PIK3R6 (phosphoinositide-3-kinase regulatory subunit 6)", "cell gain with vemurafenib": 0.8, "lactate per cell with vemurafenib": 0.85, "activity call": "inactive"}
{"Target gene": "VAV1 (vav guanine nucleotide exchange factor 1)", "cell gain with vemurafenib": 0.75, "lactate per cell with vemurafenib": 1.12, "activity call": "inactive"}
{"Target gene": "IL11RA (interleukin 11 receptor subunit alpha)", "cell gain with vemurafenib": 0.7, "lactate per cell with vemurafenib": 0.64, "activity call": "inactive"}

Part of the list above, reformatted:
PIK3R6 (phosphoinositide-3-kinase regulatory subunit 6): cell gain with vemurafenib = 0.8; lactate per cell with vemurafenib = 0.85; activity call = inactive
VAV1 (vav guanine nucleotide exchange factor 1): cell gain with vemurafenib = 0.75; lactate per cell with vemurafenib = 1.12; activity call = inactive
